Measurements from the supplement of paper PMC4604168 (melanoma cell lines).
Some of the results follow. Repeats are few or missing, and single values can be far off.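 Cells were imaged in 1,536-well plates, and nuclei stained with an antibody against cleaved PARP were counted against all DNA-stained nuclei to give the apoptosis fraction. Screening doses were chosen to leave most cells alive, and resting and induced cleaved-PARP levels differ strongly between cell lines.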

System: CBRC016 (line from a melanoma biopsy)
Experiment: cleaved PARP positive nuclei fraction relative to DMSO control; melanoma cells; higher = more apoptosis
Details: library dose: low library concentration; 72 h

Row | Compound | cleaved PARP positive nuclei fraction
1 | C=CCn1c(=O)c2cnc(Nc3ccc(N4CCN(C)CC4)cc3)nc2n1-c1cccc(C(C)(C)O)n1 + O=S(=O)(c1ccccc1)N(CC(F)(F)F)c1ccc(C(O)(C(F)(F)F)C(F)(F)F)cc1 [T0901317] (first compound 0.02 µM, partner dose 1.4 µM) | 22.2%
2 | O=C(Nc1cccc(Cl)c1)Nc1ncc(CCNc2ncnc3ccsc23)s1 + COc1cc(N2CCC(N3CCN(C)CC3)CC2)ccc1Nc1ncc(Cl)c(Nc2ccccc2S(=O)(=O)C(C)C)n1 [NVP-TAE684] (first compound 0.0008 µM, partner dose 0.08 µM) | 53.7%
3 | C[C@]1(c2nc3c(C(N)=O)cccc3[nH]2)CCCN1 [Veliparib] + COc1cc2ncnc(Nc3ccc(Oc4ccccc4)cc3)c2cc1OC [SrcI1] (first compound 1.4 µM, partner dose 2 µM) | 50%
4 | Cn1c(Nc2ccc(C(F)(F)F)cc2)nc2cc(Oc3ccnc(-c4ncc(C(F)(F)F)[nH]4)c3)ccc21 + COc1ccc(COc2ccc(Cc3cnc(N)nc3N)cc2OC)cc1 [GW2580] (first compound 0.08 µM, partner dose 1 µM) | 138%
5 | COCC[n+]1c2c(n(Cc3cnccn3)c1C)C(=O)c1ccccc1C2=O + COc1ccc(COc2ccc(Cc3cnc(N)nc3N)cc2OC)cc1 [GW2580] (first compound 0.0004 µM, partner dose 1 µM) | 56.4%
6 | Cc1ccc(NC(=O)c2cccc(N(C)C)c2)cc1NC(=O)c1ccc(O)cc1 + COC(=O)c1sccc1S(=O)(=O)Nc1ccc(Nc2ccccc2)cc1OC [GSK0660] (first compound 2 µM, partner dose 1 µM) | 57%
7 | COCC[n+]1c2c(n(Cc3cnccn3)c1C)C(=O)c1ccccc1C2=O + CC(C)CCN1c2nc(Nc3cc(F)c(O)c(F)c3)ncc2N(C)C(=O)C1C [BID1870] (first compound 0.0004 µM, partner dose 0.2 µM) | 180%
8 | CC(C)(C)c1cnc(CSc2cnc(NC(=O)C3CCNCC3)s2)o1 + Cc1cc([N+](=O)[O-])ccc1NS(=O)(=O)c1cc(Cl)ccc1Cl [FH535] (first compound 0.01 µM, partner dose 1 µM) | 571%
9 | Cc1ccc(NC(=O)c2cccc(N(C)C)c2)cc1NC(=O)c1ccc(O)cc1 + CCCCCCCCCCCC1=C(O)C(=O)C=C(O)C1=O [Embelin] (first compound 2 µM, partner dose 1.2 µM) | 64.6%
10 | Cc1ccc(NC(=O)c2cccc(N(C)C)c2)cc1NC(=O)c1ccc(O)cc1 + COc1cc(N2CCC(N3CCN(C)CC3)CC2)ccc1Nc1ncc(Cl)c(Nc2ccccc2S(=O)(=O)C(C)C)n1 [NVP-TAE684] (first compound 2 µM, partner dose 0.08 µM) | 58.6%
11 | Cn1cncc1[C@@](N)(c1ccc(Cl)cc1)c1ccc2c(c1)c(-c1cccc(Cl)c1)cc(=O)n2C [tipifarnib] + CCc1ccc(CCOc2ccc(CC3SC(=O)NC3=O)cc2)nc1 [pioglitazone] (first compound 0.01 µM, partner dose 2 µM) | 83.2%
12 | O=C(CCCCCCC(=O)Nc1ccccc1)NO [vorinostat] + COc1cc(N2CCC(N3CCN(C)CC3)CC2)ccc1Nc1ncc(Cl)c(Nc2ccccc2S(=O)(=O)C(C)C)n1 [NVP-TAE684] (first compound 0.08 µM, partner dose 0.08 µM) | 56.1%
13 | O=C(Nc1cccc(Cl)c1)Nc1ncc(CCNc2ncnc3ccsc23)s1 + COC(=O)c1sccc1S(=O)(=O)Nc1ccc(Nc2ccccc2)cc1OC [GSK0660] (first compound 0.0008 µM, partner dose 1 µM) | 22.4%
14 | C=CCn1c(=O)c2cnc(Nc3ccc(N4CCN(C)CC4)cc3)nc2n1-c1cccc(C(C)(C)O)n1 + CC(C)CCN1c2nc(Nc3cc(F)c(O)c(F)c3)ncc2N(C)C(=O)C1C [BID1870] (first compound 0.02 µM, partner dose 0.2 µM) | 104%
15 | CO[C@@H]1[C@H](N(C)C(=O)c2ccccc2)C[C@H]2O[C@]1(C)n1c3ccccc3c3c4c(c5c6ccccc6n2c5c31)C(=O)NC4 [Midostaurin] + O=S(=O)(c1ccccc1)N(CC(F)(F)F)c1ccc(C(O)(C(F)(F)F)C(F)(F)F)cc1 [T0901317] (first compound 0.08 µM, partner dose 1.4 µM) | 58.7%

3 entries from above, tab-delimited.
Row	Compound	cleaved PARP positive nuclei fraction
3	C[C@]1(c2nc3c(C(N)=O)cccc3[nH]2)CCCN1 [Veliparib] + COc1cc2ncnc(Nc3ccc(Oc4ccccc4)cc3)c2cc1OC [SrcI1] (first compound 1.4 µM, partner dose 2 µM)	50%
4	Cn1c(Nc2ccc(C(F)(F)F)cc2)nc2cc(Oc3ccnc(-c4ncc(C(F)(F)F)[nH]4)c3)ccc21 + COc1ccc(COc2ccc(Cc3cnc(N)nc3N)cc2OC)cc1 [GW2580] (first compound 0.08 µM, partner dose 1 µM)	138%
5	COCC[n+]1c2c(n(Cc3cnccn3)c1C)C(=O)c1ccccc1C2=O + COc1ccc(COc2ccc(Cc3cnc(N)nc3N)cc2OC)cc1 [GW2580] (first compound 0.0004 µM, partner dose 1 µM)	56.4%
